For assay [1], the system named is ReNCell VM. In words: neuronal differentiation score (DCX+ cell fraction vs untreated, manual image score) (score (-3 to 3)); higher = more neuronal differentiation. The settings on record: 2 uM, 2 weeks.
Assay [2] deals with ReNCell VM. Put plainly: dopaminergic neuron differentiation score (TH+ cell fraction vs untreated, manual image score) (score (0 to 3)); higher = more TH+ dopaminergic neuron differentiation. The conditions noted are these: 2 uM, 4 weeks, BDNF 10 ng/ml + GDNF 10 ng/ml.

Where a name gives a salt, the structure may show the parent alone. Some of the results follow. This data set is noisy: repeats of one test often differ as much as different tests do.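 Cells: ReNCell VM human fetal ventral-midbrain neural progenitors, differentiated mitogen-free. Blinded raters compared doublecortin-stained (early neurons) or tyrosine hydroxylase-stained (dopaminergic neurons) images with untreated wells, where 0 means no change. After repeats and both raters were averaged, compounds scoring 2 or above became hits for retesting.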

For the compound `NNc1nncc2ccccc12`, in the assay with ReNCell VM [1] (library: Spectrum), the neuronal differentiation score is inactive: 0. In the assay on ReNCell VM [2] (library: Spectrum), the “dopaminergic neuron differentiation score” value was inactive: 0.
As to `COC(=O)Nc1nc2cc(C(=O)c3ccccc3)ccc2[nH]1` [Mebendazole], the neuronal differentiation score in the assay on ReNCell VM [1] (library: Prestwick) was inactive: 0. Besides, the “dopaminergic neuron differentiation score” value with ReNCell VM [2] (library: Prestwick) is inactive: 0.
For the compound `c1ccc2c(c1)CC(N1CCN(c3cccc4c3OCCO4)CC1)C2`, in the assay on ReNCell VM [1] (library: LOPAC), the neuronal differentiation score is inactive: 0. Also, in the assay with ReNCell VM [2] (library: LOPAC), the “dopaminergic neuron differentiation score” value is inactive: 0.
In the case of `CC(C)NC[C@H](O)COc1cccc2ccccc12` [(S)-propranolol hydrochloride], the neuronal differentiation score in the assay with ReNCell VM [1] (library: Prestwick) was inactive: 0. Moreover, the “dopaminergic neuron differentiation score” value in the assay with ReNCell VM [2] (library: Prestwick) was inactive: 0.
For the compound `CCCCCc1c2c(cc(O)c1C(=O)O)OC(=O)c1c(cc(OC)cc1C(=O)CCCC)O2`, in the assay on ReNCell VM [1] (library: Spectrum), the neuronal differentiation score is inactive: 0. Further, the “dopaminergic neuron differentiation score” value in the assay on ReNCell VM [2] (library: Spectrum) is inactive: 0.
Consider `CC(C)CCCC(C)C1CCC2C3=CCC4CC(O)CCC4(C)C3CCC21C` (stereo not drawn), for which the neuronal differentiation score with ReNCell VM [1] (library: Spectrum) was inactive: 0. Moreover, the “dopaminergic neuron differentiation score” value in the assay with ReNCell VM [2] (library: Spectrum) is inactive: 0.
Turning to `CCOC(=O)[N-]c1c[n+](N2CCOCC2)no1`, the neuronal differentiation score in the assay on ReNCell VM [1] (library: Spectrum) is inactive: 0. Further, the “dopaminergic neuron differentiation score” value with ReNCell VM [2] (library: Spectrum) was inactive: 0.
Consider `CN(Cc1ccccc1)C(=O)[C@H](Cc1ccc2ccccc2c1)NC(=O)[C@@H]1C[C@@H](O)CN1C(=O)c1cn(C)c2ccccc12`, for which the neuronal differentiation score with ReNCell VM [1] (library: Tocriscreen) was inactive: 0. Also, the “dopaminergic neuron differentiation score” value with ReNCell VM [2] (library: Tocriscreen) is inactive: 0.
As to `CC1(C)CC[C@]2(C(=O)O)CC[C@]3(C)C(=CC[C@@H]4[C@@]5(C)CC[C@H](O)[C@@](C)(CO)[C@@H]5CC[C@]43C)[C@@H]2C1`, in the assay on ReNCell VM [1] (library: Spectrum), the neuronal differentiation score is inactive: 0. In addition, in the assay on ReNCell VM [2] (library: Spectrum), the “dopaminergic neuron differentiation score” value is inactive: 0.
Consider `CC(C1=C(CCN(C)C)Cc2ccccc21)c1ccccn1` (stereo in doubt) [(S)-(+)-Dimethindene maleate], for which, in the assay with ReNCell VM [1] (library: Tocriscreen), the neuronal differentiation score is inactive: 0. The “dopaminergic neuron differentiation score” value in the assay with ReNCell VM [2] (library: Tocriscreen) is inactive: 0.
`Nc1nc(=O)[nH]cc1F`: the neuronal differentiation score in the assay on ReNCell VM [1] (library: Spectrum) is inactive: 0. In the assay on ReNCell VM [2] (library: Spectrum), the “dopaminergic neuron differentiation score” value was inactive: 0.
Regarding `NC(=O)c1ccccc1` [Benzamide], in the assay on ReNCell VM [1] (library: LOPAC), the neuronal differentiation score is inactive: 0. The “dopaminergic neuron differentiation score” value in the assay with ReNCell VM [2] (library: LOPAC) was inactive: 0.
`CC1=C(/C=C/C(C)=C/C=C/C(C)=C\C(=O)O)C(C)(C)CCC1` [13-cis-retinoic acid]: the neuronal differentiation score in the assay on ReNCell VM [1] (library: LOPAC) was active: 2. In addition, the “dopaminergic neuron differentiation score” value in the assay with ReNCell VM [2] (library: LOPAC) is inactive: 0.
Turning to `CC1(C)S[C@@H]2[C@H](NC(=O)[C@H](NC(=O)N3CCNC3=O)c3ccccc3)C(=O)N2[C@H]1C(=O)O`, in the assay with ReNCell VM [1] (library: Spectrum), the neuronal differentiation score was inactive: 0. In the assay with ReNCell VM [2] (library: Spectrum), the “dopaminergic neuron differentiation score” value is inactive: 0.
Regarding `Nc1nc(N)nc(-c2cc(Cl)ccc2Cl)n1`, in the assay on ReNCell VM [1] (library: Spectrum), the neuronal differentiation score was inactive: 0. The “dopaminergic neuron differentiation score” value in the assay with ReNCell VM [2] (library: Spectrum) was inactive: 0.
Consider `Cl.N[C@@H](CCC(=O)O)C(=O)O` [L-Glutamic acid hydrochloride], for which, in the assay on ReNCell VM [1] (library: LOPAC), the neuronal differentiation score is inactive: 0. Moreover, in the assay with ReNCell VM [2] (library: LOPAC), the “dopaminergic neuron differentiation score” value is inactive: 0.
For `C[C@H]1COc2c(C3(N)CC3)c(F)cc3c(=O)c(C(=O)O)cn1c23`, the neuronal differentiation score with ReNCell VM [1] (library: Spectrum) was inactive: 0. Moreover, in the assay on ReNCell VM [2] (library: Spectrum), the “dopaminergic neuron differentiation score” value is inactive: 0.
As for `CCN(CC)CCOc1ccc(C(=C(Cl)c2ccccc2)c2ccccc2)cc1`, the neuronal differentiation score with ReNCell VM [1] (library: Spectrum) was inactive: 0. The “dopaminergic neuron differentiation score” value in the assay on ReNCell VM [2] (library: Spectrum) is inactive: 0.
Turning to `N=C(N)NC(=O)c1nc(Cl)c(N)nc1N`, the neuronal differentiation score in the assay with ReNCell VM [1] (library: Spectrum) was inactive: 0. In addition, the “dopaminergic neuron differentiation score” value in the assay on ReNCell VM [2] (library: Spectrum) was inactive: 0.
Turning to `C[C@]12CC[C@@H]3c4ccc(O)cc4CC[C@H]3[C@@H]1CC[C@@H]2O` [beta-Estradiol], the neuronal differentiation score with ReNCell VM [1] (library: LOPAC) is inactive: 0. The “dopaminergic neuron differentiation score” value in the assay with ReNCell VM [2] (library: LOPAC) is inactive: 0.
As to `CC1CCN(CCCC(=O)c2ccc(F)cc2)CC1`, the neuronal differentiation score in the assay with ReNCell VM [1] (library: Spectrum) is inactive: 0. In the assay with ReNCell VM [2] (library: Spectrum), the “dopaminergic neuron differentiation score” value was inactive: 0.
For the compound `CC12CCC(CC1)C(C)(C)O2`, in the assay with ReNCell VM [1] (library: Spectrum), the neuronal differentiation score is inactive: 0. Also, in the assay with ReNCell VM [2] (library: Spectrum), the “dopaminergic neuron differentiation score” value was inactive: 0.
Regarding `O=C(O)c1ccc(-c2ccc3cc(O)c(C45CC6CC(CC(C6)C4)C5)cc3c2)cc1`, the neuronal differentiation score in the assay on ReNCell VM [1] (library: Tocriscreen) was inactive: 0. Besides, the “dopaminergic neuron differentiation score” value in the assay with ReNCell VM [2] (library: Tocriscreen) was inactive: 0.
In the case of `CC(C)(C)n1nc(-c2cccc3ccccc23)c2c(N)ncnc21` [1-Naphthyl PP1], the neuronal differentiation score in the assay with ReNCell VM [1] (library: Tocriscreen) is inactive: 0. The “dopaminergic neuron differentiation score” value in the assay on ReNCell VM [2] (library: Tocriscreen) was active: 3.
For the compound `COc1ccc(/C=C/C(=O)c2cc(O)ccc2O)cc1`, in the assay with ReNCell VM [1] (library: Spectrum), the neuronal differentiation score was inactive: 0. In addition, in the assay on ReNCell VM [2] (library: Spectrum), the “dopaminergic neuron differentiation score” value is inactive: 0.
Regarding `NNC(=O)c1ccncc1.Nc1ccc(C(=O)O)c(O)c1`, the neuronal differentiation score in the assay with ReNCell VM [1] (library: Spectrum) was inactive: 0. Moreover, the “dopaminergic neuron differentiation score” value in the assay with ReNCell VM [2] (library: Spectrum) was inactive: 0.
As for `COc1cc([C@@H]2c3cc4c(cc3[C@@H](O[C@@H]3O[C@@H]5CO[C@@H](C)O[C@H]5[C@H](O)[C@H]3O)[C@H]3COC(=O)[C@H]23)OCO4)cc(OC)c1O`, in the assay on ReNCell VM [1] (library: Spectrum), the neuronal differentiation score is inactive: 0. Besides, the “dopaminergic neuron differentiation score” value with ReNCell VM [2] (library: Spectrum) was inactive: 0.
For the compound `O=C([O-])C(O)[C@H](O)[C@@H](O)[C@H](O)[C@H](O)CO.O=C([O-])C(O)[C@H](O)[C@@H](O)[C@H](O)[C@H](O)CO.[Ca+2]` (stereo partly drawn), the neuronal differentiation score in the assay on ReNCell VM [1] (library: Spectrum) was inactive: 0. Further, the “dopaminergic neuron differentiation score” value with ReNCell VM [2] (library: Spectrum) is inactive: 0.
As to `Clc1ccc(Cn2c(CN3CCCC3)nc3ccccc32)cc1`, the neuronal differentiation score with ReNCell VM [1] (library: Spectrum) is inactive: 0. Moreover, the “dopaminergic neuron differentiation score” value in the assay with ReNCell VM [2] (library: Spectrum) was inactive: 0.
`CC(=O)[C@]1(O)Cc2c(O)c3c(c(O)c2[C@@H](O[C@H]2C[C@H](N)[C@H](O)[C@H](C)O2)C1)C(=O)c1ccccc1C3=O` [Idarubicin]: the neuronal differentiation score with ReNCell VM [1] (library: LOPAC) is inactive: 0. The “dopaminergic neuron differentiation score” value in the assay on ReNCell VM [2] (library: LOPAC) is inactive: 0.
As to `O=C(O)[C@@H]1C[C@H](C(=O)O)N1` [cis-Azetidine-2,4-dicarboxylic acid], the neuronal differentiation score with ReNCell VM [1] (library: LOPAC) was inactive: 1. Also, in the assay on ReNCell VM [2] (library: LOPAC), the “dopaminergic neuron differentiation score” value was inactive: 0.
On to `CC1=CC(=O)OC1Cc1ccc2ccccc2n1` (stereo not drawn) [2-(3-methyl-5-oxo-2,5-dihydro-furan-2-ylmethyl)-quinoline], for which, in the assay on ReNCell VM [1] (library: Natural), the neuronal differentiation score is inactive: 0. For the same compound, the “dopaminergic neuron differentiation score” value in the assay with ReNCell VM [2] (library: Natural) is inactive: 0.
As to `O=C(NC[C@@H](O)c1ccccc1)c1ccccc1` [(-)-n-benzoyl-2-hydroxy-2-phenylethylamine], the neuronal differentiation score in the assay on ReNCell VM [1] (library: Natural) was inactive: 0. Moreover, the “dopaminergic neuron differentiation score” value in the assay with ReNCell VM [2] (library: Natural) was inactive: 0.
On to `CC[C@@]1(O)C(=O)OCc2c1cc1n(c2=O)Cc2cc3cc(O)ccc3nc2-1` [10-hydroxycamptothecin], for which the neuronal differentiation score with ReNCell VM [1] (library: Natural) was inactive: 0. In addition, in the assay on ReNCell VM [2] (library: Natural), the “dopaminergic neuron differentiation score” value is inactive: 0.

Source of the values: the supplement of paper PMC4635364.
